These are yes or no findings as the source states them, for the method shown. Sequences can lack the tags named with a protein.

These results are taken from article PMC2605266.

The target of experiment [1] is T1, GST fused to the cytosolic domain of VAMP8 (human).
T1 sequence (Q9BV40 whole entry, looked up): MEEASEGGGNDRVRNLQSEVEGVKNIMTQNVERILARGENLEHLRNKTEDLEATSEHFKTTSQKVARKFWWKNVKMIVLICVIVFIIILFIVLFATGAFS
Description: pull-down; 5 ug GST fusion protein immobilised on glutathione Sepharose, 5 ug His-tagged Munc18c in 500 ul, overnight at 4 C; binding buffer 150 mM potassium acetate, 1 mM MgCl2, 0.05% Tween 20, 20 mM HEPES pH 7.4; bound Munc18c detected by immunoblot; both purified. A general note: Immunoblotting shows a protein as a band on a membrane.

Experiment [2] addresses T2, GST fused to the cytosolic domain of VAMP4 (human).
T2 sequence (O75379 whole entry, looked up): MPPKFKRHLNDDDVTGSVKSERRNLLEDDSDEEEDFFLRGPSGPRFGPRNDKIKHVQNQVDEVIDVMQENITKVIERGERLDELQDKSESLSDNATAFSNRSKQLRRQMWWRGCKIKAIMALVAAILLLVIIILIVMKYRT
The description is as above.

B1: Munc18c, N-terminal His6-fusion protein (protein, UniProt Q60770 1-592)
chain: MAPPVSERGLKSVVWRKIKTAVFDDCRKEGEWKIMLLDEFTTKLLSSCCKMTDLLEEGITVIENIYKNREPVRQMKALYFISPTPKSVDCFLRDFGSKSEKKYKAAYIYFTDFCPDSLFNKIKASCSKSIRRCKEINISFIPQESQVYTLDVPDAFYYCYSPDPSNASRKEVVMEAMAEQIVTVCATLDENPGVRYKSKPLDNASKLAQLVEKKLEDYYKIDEKGLIKGKTQSQLLIIDRGFDPVSTVLHELTFQAMAYDLLPIENDTYKYKTDGKEKEAVLEEDDDLWVRVRHRHIAVVLEEIPKLMKEISSTKKATEGKTSLSALTQLMKKMPHFRKQISKQVVHLNLAEDCMNKFKLNIEKLCKTEQDLALGTDAEGQRVKDSMLVLLPVLLNKNHDNCDKIRAVLLYIFGINGTTEENLDRLIHNVKIEDDSDMIRNWSHLGVPIVPPSQQAKPLRKDRSAEETFQLSRWTPFIKDIMEDAIDNRLDSKEWPYCSRCPAVWNGSGAVSARQKPRTNYLELDRKNGSRLIIFVIGGITYSEMRCAYEVSQAHKSCEVIIGSTHILTPRKLLDDIKMLNKSKDKVSFKDE
On to B1, for which the binding entry in experiment [1] and in experiment [2] was “no binding (tested: less than 14% of that observed for VAMP2)” in each case.
